Source: paper PMC8510167

Tested on: SigH-His (sigma-H) (Bacillus thuringiensis HD73)
Assay: EMSA
Conditions: complete shift at 180 ng/ul SigH-His, reversed by 150x unlabeled specific competitor, no core RNA polymerase mentioned; EMSA: 10 mM Tris-HCl pH 7.5, 0.5 mM DTT, 50 mM NaCl, 500 ng poly(dI:dC), 4% glycerol, 20 ul, 0.02 or 0.015 ug FAM-DNA, 25 C, 20 min; 5% native PAGE in 0.5x TBE; recombinant protein; label: FAM; probe letters rebuilt from the primers and the genome

“TTCCATTCCGCGTTTCCTCCTCGTTTCTTTAAAAAGTATTAGCAATTATTTCACTTTAACTTATATTCACGAGGAATGGCGCGTATTCCTGCTAAATTTTCGTAATTTTTCTAAAAAATTAAAATATAATAACTTATCTAAAATTTGACGGAAATTTACTCAAAAAATGGTTGATCGTCATTAATTAAAATACGTTCAATTCTCTTTGCTTTTCCTGTATTTGGATCCACATCAATTAACACTGCACT (double strand) [FAM-PspoVS1 (256 bp)]”: binds.

For at least one entry, the source does not settle the construct or the ends of the probe.
